The list shows a part of the results.
molecular target: T1, OsSMF1 (Oryza sativa, UniProt Q6ZLB0 1-436); assay: protein-binding microarray (RPBM); PBS, 2% BSA, 51.3 ng/ul salmon testes DNA, 50 uM zinc acetate, 200 nM TF, 25 C, 1 h; high values mean tight binding; conditions: protein: recombinant; tags: N-terminal polyhistidine and DsRed monomer fusion (pET32a); chain copies: 2; label: CyDye5-dUTP incorporated in the synthesized complementary strand; 3' TTTTT single-stranded linker to array surface; dsDNA, one strand shown
T1 sequence: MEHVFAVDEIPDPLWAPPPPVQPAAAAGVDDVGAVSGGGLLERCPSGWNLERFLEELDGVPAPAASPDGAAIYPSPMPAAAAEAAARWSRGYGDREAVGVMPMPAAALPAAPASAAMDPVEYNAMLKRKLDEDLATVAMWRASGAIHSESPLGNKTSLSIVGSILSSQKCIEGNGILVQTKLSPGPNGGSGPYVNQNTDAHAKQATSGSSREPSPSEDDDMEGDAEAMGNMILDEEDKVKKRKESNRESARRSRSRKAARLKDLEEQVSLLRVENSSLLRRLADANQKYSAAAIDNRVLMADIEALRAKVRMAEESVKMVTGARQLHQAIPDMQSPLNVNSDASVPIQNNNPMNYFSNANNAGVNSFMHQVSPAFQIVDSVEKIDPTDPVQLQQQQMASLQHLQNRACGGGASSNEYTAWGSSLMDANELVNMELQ
In short: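 Binding signal is reported as fluorescence intensity per feature (arbitrary units) from an Axon 4000B scanner. Incubation used 200 nM of each Ni–NTA-purified, N-terminally polyhistidine- and DsRed-fused transcription factor from E. coli BL21-CodonPlus on a double-stranded custom Agilent array for 1 h at 25 °C, with 50 µM zinc acetate in the buffer, followed by washing.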

Sequence	binding signal
CGAATCCACCCACGCAAGCGCGGCGGTGGGCCCCACCTGTCGGAGTCACCTAGTGCAG	4420 fluorescence intensity (a.u.)
ACTGTAGAACAATTGATAAAGTCACTGGTATATTATAGAACGGAGTCACCTAGTGCAG	34800 fluorescence intensity (a.u.)
ACTTATTCCTAGGCCCAAACACCCGGCTCACATCACATCGCGGAGTCACCTAGTGCAG	3340 fluorescence intensity (a.u.)
CTTATATAGAGAAAATTAGCAACATCTACAATACAAAATTCGGAGTCACCTAGTGCAG	34600 fluorescence intensity (a.u.)
CTTCGAGCTTTACACGGTGTAAGGATAGAGCAGTAGTATTCGGAGTCACCTAGTGCAG	3270 fluorescence intensity (a.u.)
CATTGCTAGCGGCTCGACACGTGTCGCCCGGACGAGCCCCCGGAGTCACCTAGTGCAG	16600 fluorescence intensity (a.u.)
ATTATTTAAGTGATGATATGTAAATAACGAGTGAAGTTTTCGGAGTCACCTAGTGCAG	3400 fluorescence intensity (a.u.)
AAACATTAATCATGCATGAGCAGTATGCCCGGCAACTGGACGGAGTCACCTAGTGCAG	17200 fluorescence intensity (a.u.)
TGCATAAGTGTCCGTACCAGTACGGTCAGAGTGACATATGCGGAGTCACCTAGTGCAG	3770 fluorescence intensity (a.u.)
CGCACCCGCACAGCACCACACCACCTGCCTAGCGCCAAGCCGGAGTCACCTAGTGCAG	3560 fluorescence intensity (a.u.)
TTTTAAGAGATAGTTTTCCCGCTAGGCGCCACGACGGAACCGGAGTCACCTAGTGCAG	4030 fluorescence intensity (a.u.)
TCAACTAGGAGCGCGTGTCACACTGTCAGTCCAGTGGGCCCGGAGTCACCTAGTGCAG	3210 fluorescence intensity (a.u.)
TATCATGACGGCGGCGTGTTCGATGGAGATAAAATGTGCCCGGAGTCACCTAGTGCAG	3170 fluorescence intensity (a.u.)
GATATTTAACCATTTGCCACATTTAGATGTGGCAATTAACCGGAGTCACCTAGTGCAG	3250 fluorescence intensity (a.u.)
CGCCATCGCCAACGCCAACGCCTCCGCGGACTCCATTGTCCGGAGTCACCTAGTGCAG	3650 fluorescence intensity (a.u.)
ATACATGGTATGTGTGCACACGTCGCATGTCACGTGCTGTCGGAGTCACCTAGTGCAG	7850 fluorescence intensity (a.u.)
CGATGAGGTACTATACTAACAATGTGCTACTGTCATGCCACGGAGTCACCTAGTGCAG	3770 fluorescence intensity (a.u.)
CCTACTCCTGTCCGGGGATGAATCCGCCGAGTGTATTATTCGGAGTCACCTAGTGCAG	3250 fluorescence intensity (a.u.)
GCGTGGCGGCGCCGGTGGTGGTGGAGGAGCGCCTGCCACGCGGAGTCACCTAGTGCAG	3780 fluorescence intensity (a.u.)
GCGGCAGCTCACGGCCTGTGTCACCCAGCAATATGGCTAACGGAGTCACCTAGTGCAG	4720 fluorescence intensity (a.u.)
GATATAATTGCCACGTAAGCGCCACGTCAATGCCACGTGCCGGAGTCACCTAGTGCAG	52100 fluorescence intensity (a.u.)
ACTTTCACAAAACTATACACATATCACTTTTCAATAAATACGGAGTCACCTAGTGCAG	19900 fluorescence intensity (a.u.)
GTGTCGAAGCGGCCATGCCACCTCTCTCTGTTGCGACCATCGGAGTCACCTAGTGCAG	3160 fluorescence intensity (a.u.)

Pulled one by one from the list above (two):
Sequence	binding signal
GTGTCGAAGCGGCCATGCCACCTCTCTCTGTTGCGACCATCGGAGTCACCTAGTGCAG	3160 fluorescence intensity (a.u.)
GCGTGGCGGCGCCGGTGGTGGTGGAGGAGCGCCTGCCACGCGGAGTCACCTAGTGCAG	3780 fluorescence intensity (a.u.)
